Construct, isoform or probe ends are uncertain for at least one entry. Where a protein sequence is shown, tags need not be part of it.
target: T1, His-OsbR (Chromobacterium violaceum ATCC 12472) (UniProt Q7NR79); assay: EMSA; conditions: reduced OsbR; EMSA with 32P-labeled PCR probes and reduced His-OsbR; pH and temperature not given (refers to earlier papers); CHP pretreatment at room temperature; recombinant protein; protein details: His (pET15b); label: 32P 5' end; probe letters rebuilt from the primers and the genome
T1 sequence (looked up, limits assumed): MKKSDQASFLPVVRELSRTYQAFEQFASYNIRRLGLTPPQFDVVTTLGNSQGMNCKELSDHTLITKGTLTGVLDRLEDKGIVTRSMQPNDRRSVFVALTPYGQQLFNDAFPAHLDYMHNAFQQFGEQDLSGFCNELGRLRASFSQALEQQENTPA

Binding result, binds:
ATCAAGCTTCATCGAAAGAGTCCCCGTGCTGTTCTTAAGCAGAGTGGTACAGAGTAAGGCCCTAATTGACAGAGTCACCTACAATTCTGACACGCGCTCTGGATAAATTCGCCTGTCTGAAATGTCATGTTCATCCAGACAAAATTTTCTAGATCGGCCTGTCCTTATCGGCAGTAAACAAGGCGGATCGATCGATGGCAGCGCGGGGAATGCCGGATTTCGGCATGACGCCAGCCTGGAATCGGTTTTTGTCAAGCGCCAGGGCATTGCCAAATGGTGCGCCGAGGCGGGCTTTCGTTATAATGAGCGAGAAATGCCCGCGAGCGGCGGGCCGGCAGCCGGAAAACGGCGGCCGGGCAGGGACAGGATAATAACGGGAAGCTGCCTGAAAAGCATCGCCGCAAGAAACGGGCGGGCATCCGGGGCGATCGGCGCGGGGCGCGGCGTCAGGGCGCTTGTTTACCGGCTCTTGATGGTTTTGGACAGGCGGCTTCGATTATTCGCCTTAATGCGGACTGGCTCTGCAGGGTACC (double strand) [osbR promoter]
GACCGACAATGACGGCTACGGCTTCTTCGCGGCGCTGGGCGATCTGCTGGTCACCGGCCCCACCCATACCAACGTCAACGATTTTCGCGCGATCCTGCTGCGGTAACGGAGTCGCGGCCAGCCGCGAGTCGGAACGCCGCCCGGCTCTCCACGATCCAGGCCATGCGATGCATGGCCTTTTTTGCGCGCGCATTCATGACATGGAGGTATGGTCAAGCCTACAGATCAGACTTTGTTCATCTTGACCCGAACTATCTTGGGCAACTATGATTCATATCAAAGTTTCAGAAATTCCTGAAAGTTGAGAATGTCATGAATATTCCACCTCTGGTGCAGGCTTTCGTGCTGCATTTCGGC (double strand) [CV_3659 promoter]
GCGACAACACCAGCAGCTTGCTGGCCAGGGTCTGGAAGCGGGGAGGGGCAAAACGGATGTCGGGCATGGGCATGGTTCTGCTTTTGGCGGATGGCAAACGGCGGCGGCGGACTGCACAATGTCTGGACGCGGTTATGGTTCAGATATGAATTGTTTAAACATAGCTTTTATCGATGGCCGCGACAATCCGTCAAAAGGAGAAGAAATGCAAGCGGTACTGGGCATATGCGGTTACTCGGGCAGCGGCAAGACCACCTTGCTGGAGGCGCTGCTGCCCTTGCTGGGGCGCCGGGGCTTGAGGGTGTCGGTGATC (double strand) [narX promoter]

Source: article PMC8567585
